This is an account of results in publication PMC4388180.

Sequences of proteins named here, by UniProt entry; tags and fusion partners are left off.
UniProt P50748: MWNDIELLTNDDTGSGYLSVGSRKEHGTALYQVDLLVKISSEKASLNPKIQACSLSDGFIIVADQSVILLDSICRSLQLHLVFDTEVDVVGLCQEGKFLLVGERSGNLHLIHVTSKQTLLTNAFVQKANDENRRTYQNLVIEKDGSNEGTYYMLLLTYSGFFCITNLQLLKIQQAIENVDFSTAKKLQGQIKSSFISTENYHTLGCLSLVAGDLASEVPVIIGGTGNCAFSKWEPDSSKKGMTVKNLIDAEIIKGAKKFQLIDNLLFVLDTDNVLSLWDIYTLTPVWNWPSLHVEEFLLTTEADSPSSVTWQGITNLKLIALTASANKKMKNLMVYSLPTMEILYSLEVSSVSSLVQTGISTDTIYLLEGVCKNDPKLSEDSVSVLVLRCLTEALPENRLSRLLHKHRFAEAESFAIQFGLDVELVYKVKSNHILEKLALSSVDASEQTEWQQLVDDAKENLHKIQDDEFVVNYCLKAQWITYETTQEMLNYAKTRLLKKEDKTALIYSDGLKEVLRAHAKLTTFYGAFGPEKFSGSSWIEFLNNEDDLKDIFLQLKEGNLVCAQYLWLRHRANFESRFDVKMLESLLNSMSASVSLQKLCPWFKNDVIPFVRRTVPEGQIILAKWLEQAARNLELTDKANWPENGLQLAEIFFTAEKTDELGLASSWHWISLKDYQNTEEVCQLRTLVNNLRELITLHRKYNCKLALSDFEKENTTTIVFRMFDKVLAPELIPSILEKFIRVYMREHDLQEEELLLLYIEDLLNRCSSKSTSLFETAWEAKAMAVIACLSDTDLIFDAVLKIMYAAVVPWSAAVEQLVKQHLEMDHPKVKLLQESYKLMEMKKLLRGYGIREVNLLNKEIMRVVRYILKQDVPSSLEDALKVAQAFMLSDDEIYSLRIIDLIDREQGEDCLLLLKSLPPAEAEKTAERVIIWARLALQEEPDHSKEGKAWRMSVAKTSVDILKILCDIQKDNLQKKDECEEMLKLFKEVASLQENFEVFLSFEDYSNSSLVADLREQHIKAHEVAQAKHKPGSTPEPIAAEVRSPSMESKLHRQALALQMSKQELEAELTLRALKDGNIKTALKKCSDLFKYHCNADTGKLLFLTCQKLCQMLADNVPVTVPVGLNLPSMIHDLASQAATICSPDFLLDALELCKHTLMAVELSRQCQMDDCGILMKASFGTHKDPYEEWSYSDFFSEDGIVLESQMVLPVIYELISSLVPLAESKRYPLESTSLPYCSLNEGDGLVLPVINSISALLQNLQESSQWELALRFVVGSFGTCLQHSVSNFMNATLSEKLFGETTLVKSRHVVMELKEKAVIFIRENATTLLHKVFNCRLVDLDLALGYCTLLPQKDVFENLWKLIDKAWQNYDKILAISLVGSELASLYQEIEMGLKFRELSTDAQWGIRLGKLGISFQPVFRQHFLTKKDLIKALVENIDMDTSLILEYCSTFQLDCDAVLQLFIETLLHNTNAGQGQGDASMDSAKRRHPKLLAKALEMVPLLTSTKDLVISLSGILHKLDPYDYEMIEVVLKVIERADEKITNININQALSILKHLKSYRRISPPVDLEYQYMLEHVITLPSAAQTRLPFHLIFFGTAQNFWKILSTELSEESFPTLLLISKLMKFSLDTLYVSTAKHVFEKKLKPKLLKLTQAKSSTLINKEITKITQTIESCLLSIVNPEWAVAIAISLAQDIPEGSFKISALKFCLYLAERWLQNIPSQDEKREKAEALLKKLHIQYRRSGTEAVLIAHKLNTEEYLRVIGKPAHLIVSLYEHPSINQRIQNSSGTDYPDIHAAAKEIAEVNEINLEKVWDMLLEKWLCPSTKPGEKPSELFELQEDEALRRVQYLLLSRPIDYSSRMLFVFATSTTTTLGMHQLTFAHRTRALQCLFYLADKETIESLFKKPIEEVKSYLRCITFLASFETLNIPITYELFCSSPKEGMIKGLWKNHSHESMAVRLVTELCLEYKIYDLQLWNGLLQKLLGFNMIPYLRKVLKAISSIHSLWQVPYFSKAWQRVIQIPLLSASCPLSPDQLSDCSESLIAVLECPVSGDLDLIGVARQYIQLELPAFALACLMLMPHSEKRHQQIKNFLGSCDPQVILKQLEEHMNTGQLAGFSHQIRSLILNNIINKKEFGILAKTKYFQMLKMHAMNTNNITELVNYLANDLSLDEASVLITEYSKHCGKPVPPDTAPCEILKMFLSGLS
UniProt Q9H900: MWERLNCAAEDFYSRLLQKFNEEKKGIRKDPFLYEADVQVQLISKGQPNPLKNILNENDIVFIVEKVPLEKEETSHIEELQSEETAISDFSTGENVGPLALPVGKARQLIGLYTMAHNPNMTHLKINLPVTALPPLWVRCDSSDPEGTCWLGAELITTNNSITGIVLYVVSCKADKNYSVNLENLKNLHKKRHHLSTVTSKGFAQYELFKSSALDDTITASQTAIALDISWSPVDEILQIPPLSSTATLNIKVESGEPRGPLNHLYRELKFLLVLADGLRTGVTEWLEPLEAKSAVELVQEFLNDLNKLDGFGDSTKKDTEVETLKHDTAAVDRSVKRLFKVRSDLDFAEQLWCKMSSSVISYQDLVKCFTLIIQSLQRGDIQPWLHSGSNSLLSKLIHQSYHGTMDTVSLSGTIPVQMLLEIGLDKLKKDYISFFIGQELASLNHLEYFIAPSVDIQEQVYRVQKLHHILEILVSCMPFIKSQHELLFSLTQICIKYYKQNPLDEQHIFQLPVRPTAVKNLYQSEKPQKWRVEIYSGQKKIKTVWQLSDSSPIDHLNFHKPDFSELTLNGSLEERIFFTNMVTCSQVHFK

These are yes or no findings as the source states them, for the method shown. Some binding calls cover weakened binding; strength is not graded here.

Test [1] concerns the target Rod (human) (UniProt P50748). Briefly: SDS-PAGE of washed, dissolved crystals; crystals of the purified co-expressed complex grown against 380 mM ammonium sulfate, 0.1 M MES pH 6.3, washed extensively and analysed by SDS-PAGE.
The target in test [2] is Rod (human) (UniProt P50748). Briefly: co-purification (Ni-NTA affinity, then SEC); three subunits co-expressed in Tnao38 cells; cleared lysate on Ni-NTA (50 mM HEPES pH 8.5, 200 mM NaCl, 5% glycerol, 20 mM imidazole), held by His6-Rod; then Superose 6 10/300 in 25 mM HEPES pH 8.5, 250 mM NaCl, 4 mM TCEP; SDS-PAGE of fractions.

With Zwilch (from UniProt Q9H900 1-591), the binding result in test [1] and in test [2] was “binds” throughout.

B1: ZW10 (protein, UniProt O43264 1-779)
chain: MASFVTEVLAHSGRLEKEDLGTRISRLTRRVEEIKGEVCNMISKKYSEFLPSMQSAQGLITQVDKLSEDIDLLKSRIESEVRRDLHVSTGEFTDLKQQLERDSVVLSLLKQLQEFSTAIEEYNCALTEKKYVTGAQRLEEAQKCLKLLKSRKCFDLKILKSLSMELTIQKQNILYHLGEEWQKLIVWKFPPSKDTSSLESYLQTELHLYTEQSHKEEKTPMPPISSVLLAFSVLGELHSKLKSFGQMLLKYILRPLASCPSLHAVIESQPNIVIIRFESIMTNLEYPSPSEVFTKIRLVLEVLQKQLLDLPLDTDLENEKTSTVPLAEMLGDMIWEDLSECLIKNCLVYSIPTNSSKLQQYEEIIQSTEEFENALKEMRFLKGDTTDLLKYARNINSHFANKKCQDVIVAARNLMTSEIHNTVKIIPDSKINVPELPTPDEDNKLEVQKVSNTQYHEVMNLEPENTLDQHSFSLPTCRISESVKKLMELAYQTLLEATTSSDQCAVQLFYSVRNIFHLFHDVVPTYHKENLQKLPQLAAIHHNNCMYIAHHLLTLGHQFRLRLAPILCDGTATFVDLVPGFRRLGTECFLAQMRAQKGELLERLSSARNFSNMDDEENYSAASKAVRQVLHQLKRLGIVWQDVLPVNIYCKAMGTLLNTAISEVIGKITALEDISTEDGDRLYSLCKTVMDEGPQVFAPLSEESKNKKYQEEVPVYVPKWMPFKELMMMLQASLQEIGDRWADGKGPLAAAFSSSEVKALIRALFQNTERRAAALAKIK
In the case of B1, the binding entry in test [1] and in test [2] was “binds” each time.
